# According to PubChem BioAssay AID624297 (National Center for Advancing Translational Sciences (NCATS), 2012):
# Among all 340,000 compounds or so, about 6,200 (1.8%) were called active. The inconclusive results got no clear call from the source; some entries with a clear call stand among them for comparison. The call rests on the fitted dose curve; in most records, active means well fitted activation curve with a large enough effect; inconclusive means small, poorly fitted or top-dose-only effect; inactive means no such curve, though single readings can be large or run the other way. Where the call is inconclusive, the potency comes from a doubtful curve fit.
# Assay: A quantitative high throughput screen for small molecules that induce DNA re-replication in SW480 colon adenocarcinoma cells. Further: nearly all actives have a fitted effect of over 55% in size. On re-replication activation: % of control where 0% means no effect.
# Conditions: Hoechst DNA content imaging, 48 h; re-replication activation: at 46.1 µM (top of the series) unless noted
# Summary of the method: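 Hoechst fluorescence of nuclei (405 nm excitation, 500-530 nm emission) measured by plate-scanning imager after 48 hr compound exposure at 37 C; re-replication scored as increased number of nuclei with elevated intensity.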
# Potency means the concentration at half of the fitted maximal effect.
Structure (SMILES),Potency,re-replication activation
CC(C)OCCCn1c(=NC(=O)c2cccs2)c(C#N)cc2c(=O)n3ccccc3nc21,active: 20.6 µM,
Cc1cccc(N2CCN(C(=O)COc3ccc4c(c3)CCC4)CC2C)c1 (stereo unspecified),,inactive: -12.5%
CC(C)NC(=S)N/N=C/c1sc(N2CCCCC2)nc1-c1cccs1,,inactive: 16.9%
Nc1cccc2c1C(=O)N(C(=O)/C=C/c1cccc(Br)c1)C2=O,"inconclusive: 23.1 µM [activator, single point]",
COc1cccc(/C=N/NC(=O)CNC(=O)C2COc3ccccc3O2)c1O (stereo unspecified),"inconclusive: 29.1 µM [activator, single point]",
Cc1ccsc1C1NC(=O)c2ccccc2N1 (stereo unspecified),"inconclusive: 18.4 µM [activator, single point]",
O=C(COc1ccc(Cl)cc1)N1CCN(C(=O)c2cccs2)CC1,,inactive: -14.4%
CCOC(=O)c1cnn(-c2nc(OC)cc(OC)n2)c1C(F)(F)F,,inactive: 2.66%
Cc1cc(Cl)c(S(=O)(=O)Nc2ccc3c(c2)OCO3)cc1OCC(N)=O,"inconclusive: 29.1 µM [activator, single point]",
N#C/C(=C\c1ccc(O)c([N+](=O)[O-])c1)C(=O)NCc1ccccc1,,inactive: 1.89%
O=C(CCN1C(=O)C2CCCCC2C1=O)N1CCN(S(=O)(=O)c2c(F)cccc2F)CC1 (stereo unspecified),,inactive: -5.52%
O=C1NCN(c2ccccc2)C12CCN(CCCC(c1ccc(F)cc1)c1ccc(F)cc1)CC2,"inconclusive: 2.51 µM [activator, partial curve, poor fit]",
COc1ccc(N2CCN(CCNC(=O)CCS(=O)(=O)c3cccc4nsnc34)CC2)cc1,,inconclusive: -700% [activator]
Oc1ccc2ccccc2c1N=Nc1ccccn1,"inconclusive: 0.517 µM [activator, full curve]",
Cc1nc2ccccc2nc(=O)c1NNc1ccccc1,,inactive: 0.644%
Cc1ccc(C(=O)c2c3ccc(C(F)(F)F)cc3[n+]([O-])n2CCCC(N)=O)cc1,,inactive: -9.05%
COc1cc(/C=C/C(=O)O)cc(S(=O)(=O)Nc2ccc3nc(C)sc3c2)c1OC,,inconclusive: 0.993% [activator]
COC(=O)c1ccccc1NC(=O)CSCC(=O)Nc1ccccc1OC,,inactive: 2.02%
CCOC(=O)C1=C(C)N(c2ccc(C)c(C)c2)C(=O)/C1=C\c1ccco1,"inconclusive: 29.1 µM [activator, single point]",
COc1ccc(CN(C)Cc2nc(Cc3ccccc3Cl)no2)cc1OC,"inconclusive: 0.651 µM [activator, full curve, poor fit]",
CCN(CC)c1ccc(/C=N/NC(=O)CNC(=O)C2COc3ccccc3O2)c(O)c1 (stereo unspecified),active: 6.51 µM,

# Rewritten bar-delimited: 4 of the compounds above.
Structure (SMILES) | Potency | re-replication activation
COc1cccc(/C=N/NC(=O)CNC(=O)C2COc3ccccc3O2)c1O (stereo unspecified) | inconclusive: 29.1 µM [activator, single point] | 
Cc1ccsc1C1NC(=O)c2ccccc2N1 (stereo unspecified) | inconclusive: 18.4 µM [activator, single point] | 
O=C(COc1ccc(Cl)cc1)N1CCN(C(=O)c2cccs2)CC1 |  | inactive: -14.4%
CCOC(=O)c1cnn(-c2nc(OC)cc(OC)n2)c1C(F)(F)F |  | inactive: 2.66%
